Experimental findings from PubChem BioAssay AID1458 (National Center for Advancing Translational Sciences (NCATS), 2008) are described below.

Each structure is given as a SMILES string. Out of some 210,000 compounds screened, about 5,900 (2.8%) were called active. Roughly 5% stayed inconclusive and do not appear here. Calls follow the shape of the dose curve; as a rule, active = well fitted activation curve with a large enough effect; inconclusive = small, poorly fitted or top-dose-only effect; inactive = no such curve, though single readings can be large or run the other way. The list shows a part of the results, in another mix than the full data. The source gives no active or inactive call for entries shown without one.
Potency is read from the fitted curve at half-maximal effect.

The nature of this test: qHTS Assay for Enhancers of SMN2 Splice Variant Expression. Also: nearly all actives have a fitted effect of over 55% in size. As to activity change, positive = activation: % of control where 0% means no effect. The conditions noted are these: HEK293 SMN2-luciferase splicing reporter, luminescence, 30-36 h; activity change, positive = activation: at 46.1 µM (top of the series) unless noted. The procedure, abridged: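 qHTS luciferase splicing reporter: luminescence rises when SMN2 exon 7 is included in transfected HEK293 cells. Compound exposure lasted 30-36 h at 37C, with 4.5 mM final sodium butyrate as control, followed by a ONE-Glo read.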
(In general: Quantitative high-throughput screening tests each substance at several concentrations.)
As for `Nc1nonc1NC(=O)CSc1ncccc1C(=O)O`, the activity change, positive = activation is 35.9%.
In the case of `N#CC1=C(N)C2=C(N3CCCCC3)CCCC2C1(C#N)C#N` (configuration not stated), the activity change, positive = activation came to 43.9%.
Take `Cc1ccc(C)c(CN2C(=O)c3ccccc3S(=O)c3ccc(C(=O)N4CCCCC4)cc32)c1` (configuration not stated): the “activity change, positive = activation” value was inactive: -30.6%.
Turning to `COc1ccc(CCN2C(=O)CC(N3CCN(c4ccccn4)CC3)C2=O)cc1OC` (configuration not stated), the activity change, positive = activation stood at 51.8%.
Take `O=C(CSc1ccsc1[N+](=O)[O-])NCCc1ccccc1`: the activity change, positive = activation was 20.6%.
Same read-out and setting: the result for `COc1ccccc1NC(=O)N1C2CCCC1CC(NC(=O)c1ccccc1)C2` (configuration not stated) reads inactive: -32.6%; that for `Cc1ccc(NC(=O)c2cc3c(s2)CCCC3)cc1S(=O)(=O)Nc1ccccc1Cl`, inactive: -60.2%; that for `O=C(/C=C/c1c(F)cccc1Cl)Nc1ccncc1`, inactive: -22.6%.
With `CCc1ccc(O)c(N=Cc2ccccc2O)c1`, the activity change, positive = activation was determined as 44.5%.
With `Cn1c(=O)n(Cc2ccccc2F)c(=O)c2c1nc1n2CCN1Cc1ccco1`, the “activity change, positive = activation” value is inactive: -48.1%.
As to `O=c1c2c3c(sc2n(Cc2ccc(F)cc2Cl)c(=O)n1-c1ccc(Cl)cc1)CCC3`, the activity change, positive = activation was 31.4%.
With `COc1ccccc1NC(=S)N(Cc1ccc(C)cc1)Cc1ccccn1`, the activity change, positive = activation was -59.9%.
For the compound `Cc1ccc(CSc2oc(-c3cccs3)nc2S(=O)(=O)c2ccc(C)cc2)cc1`, the activity change, positive = activation is 49.9%.
As for `COC(=O)c1ccc(COc2cc(O)c3c(c2)OC(C)(C)CC3=O)cc1`, the “activity change, positive = activation” value was inactive: -49.7%.
For `Cc1c2oc3c(C)ccc(C(=O)NC4C(=O)NC(C(C)C)C(=O)N5CCCC5C(=O)N(C)CC(=O)N(C)C(C(C)C)C(=O)OC4C)c3nc-2c(C(=O)NC2C(=O)NC(C(C)C)C(=O)N3CCCC3C(=O)N(C)CC(=O)N(C)C(C(C)C)C(=O)OC2C)c(N)c1=O` (configuration not stated), the “activity change, positive = activation” value was inactive: -95.4%.
As for `O=C(COC(=O)c1c2c(nc3ccccc13)CCCC2)Nc1ccc2c(c1)OCO2`, the “activity change, positive = activation” value is inactive: -52.2%.
Regarding `Cc1ccc(Nc2nc3ccccc3n3nnnc23)cc1`, the activity change, positive = activation stood at 33.3%.
On to `Cc1cc(=O)[nH]c(SCC(=O)Nc2ccc(S(=O)(=O)N3CCCCC3)cc2)n1`, for which the activity change, positive = activation was 43.4%.
On to `COC(=O)c1ccccc1NC(=O)NCc1cccnc1`, for which the activity change, positive = activation came out at 24.9%.
On to `COc1ccc(-c2nnc(SCC(=O)c3[nH]c(C)c(C(C)=O)c3C)o2)cc1`, for which the activity change, positive = activation was -58.5%.
Still for that read-out and setting: the same measure for `CCOc1ccc(N(C)S(=O)(=O)c2ccc3[nH]cc(C(=O)NCCOC)c(=O)c3c2)cc1`: -16.5%; for `Cc1c(-c2ccccc2)oc2c(C(=O)N3CCN(c4ccc([N+](=O)[O-])cc4)CC3)cccc2c1=O`: inactive: -31.5%; for `O=C(COC(=O)c1ccccc1Br)Nc1ccccc1F`: 32.9%.
The same measure, in the same setting: the same measure for `COc1cccc(N2CCN(c3ncnc4c3cnn4-c3ccc(C)cc3C)CC2)c1`: inactive: -90.2%; for `Cc1nc2ccccc2n1CC(=O)N/N=C\C=C\c1ccccc1`: -40.2%; for `CCOC(=O)COc1ccc(S(=O)(=O)N2CCN(C(=O)OCC)CC2)cc1`: 45.1%.
On to `CCOC(=O)C(CCCOc1ccccc1)C(=O)OCC`, for which the activity change, positive = activation turned out to be 29%.
On to `CCOC(=O)CCc1c(C)c(C#N)c2[nH]c3ccccc3n2c1=O`, for which the activity change, positive = activation is -36.8%.
For the compound `N#C/C(=C\c1ccco1)c1nc2ccccc2s1`, the Potency is active: 11.2 µM.
For `Nc1nc(-c2ccc(Cl)cc2)nn1C(=O)c1cccnc1`, the activity change, positive = activation was determined as 36.1%.
In the case of `Cc1ccc(NC(=S)NNC(=O)c2c(Cl)c(C)nn2C)cc1`, the activity change, positive = activation is -34.5%.
With `N#CC1CC(c2ccccc2)=NN1c1ccccc1[N+](=O)[O-]` (configuration not stated), the Potency is active: 22.4 µM.
With `c1ccc(OCc2nc3ccccc3[nH]2)cc1`, the Potency was active: 12.6 µM.
Turning to `O=c1[nH]c(SCCOc2cccc3ccccc23)nc2ccccc12`, the activity change, positive = activation stood at 230%.
Turning to `CCC(=O)NC(c1ccccc1OC)c1ccc2cccnc2c1O` (configuration not stated), the “activity change, positive = activation” value was inactive: -109%.
For the compound `Cc1ccc2nc(-c3ccccc3)cc(C(=O)NCCCn3ccnc3)c2c1`, the activity change, positive = activation is -11.2%.
Take `CC(=O)NCCc1nc2cc(NC(=O)c3cccs3)ccc2n1C`: the activity change, positive = activation is -0.418%.
In the case of `CCOc1ccc(NC(=O)c2ccc(CC)s2)c([N+](=O)[O-])c1`, the activity change, positive = activation was determined as 29.9%.
As to `COc1ccc2c(c1)-c1nc(NC(=O)c3ccco3)sc1CC2`, the activity change, positive = activation amounted to 47%.
Still for that read-out and setting: the same measure for `Cc1[nH]n(-c2ccccc2)c(=O)c1C1(C(F)(F)F)C(=O)N(c2ccc(F)cc2)C2=C1C(=O)CC(C)(C)C2` (configuration not stated): 49.2%; for `CCn1c(SCC(=O)NCc2ccco2)nnc1-c1cccs1`: 34.1%; for `Cn1c(=O)n(CC(=O)O)c(=O)c2c1nc1n2CCS1`: 47.5%.
With `CC(C)N1C/C(=C/c2ccsc2)C(=O)/C(=C/c2ccsc2)C1`, the “activity change, positive = activation” value was inactive: -77.7%.
Regarding `CSc1nsc(NC(=O)Cc2ccccc2)n1`, the activity change, positive = activation is -65.3%.
On the same count and under the same terms, the same measure for `CCn1c(O)c(N=NC(=O)c2cccc(S(=O)(=O)N3CCCCC3)c2)c2ccccc21`: -69.1%; for `O=C(O)C1CCCN1c1ncccn1` (configuration not stated): 38.6%; for `CCOC(=O)N1CCN(C(=O)NC23CC4CC(CC(C4)C2)C3)CC1`: 30.9%.
With `Cc1cccc(-n2ncc3c(N4CCOCC4)ncnc32)c1`, the “activity change, positive = activation” value was inactive: -67.7%.
The same measure, in the same setting: the result for `Cc1ccc(S(=O)(=O)CCc2nnc(NC(=O)c3cnccn3)s2)cc1` reads 35.3%.
Regarding `CCS(=O)(=O)N1CCC(C(=O)NCCCOC)CC1`, the activity change, positive = activation was 38.2%.
Turning to `Cc1ccccc1OCCn1cc(C(=O)C2CCCCC2)c2ccccc21`, the activity change, positive = activation turned out to be 51%.
For `CCCCN(C)CC(O)Cn1cc(/C=C/C(=O)c2cccs2)c2ccccc21` (configuration not stated), the activity change, positive = activation was -93.4%.
